US8153368B2, “Four-jointed box (FJX1) in cancer diagnosis and treatment” (Vanderbilt University, priority 2007, dated 2012)
At least one structure is not confirmed: it was looked up by name or label, or the drawing left a doubt.

Tested on: FJX1 mRNA
Test: qRT-PCR of FJX1 expression in rectal cancer biopsies before and after celecoxib
Assay type: in vivo, human
Settings: biopsies before vs after one week of celecoxib 400 mg twice per day; random 5 of 16 rectal cancer patients; normalized to PMM1

SMILES: Cc1ccc(-c2cc(C(F)(F)F)nn2-c2ccc(S(N)(=O)=O)cc2)cc1 [celecoxib]
- FJX1 mRNA after Celecoxib treatment (qRT-PCR validation): down-regulated in four of the five rectal cancers
